These are yes or no findings as the source states them, for the method shown. Binding seen in cells or lysates may run through a third protein. Some results given as binding are weak or reduced against the parent protein; the word gives no strength. Tags and fused reporters may be left off the sequences shown.
T1: Flag-tagged WTAP^1–273 (human) (UniProt Q15007)
T1 sequence: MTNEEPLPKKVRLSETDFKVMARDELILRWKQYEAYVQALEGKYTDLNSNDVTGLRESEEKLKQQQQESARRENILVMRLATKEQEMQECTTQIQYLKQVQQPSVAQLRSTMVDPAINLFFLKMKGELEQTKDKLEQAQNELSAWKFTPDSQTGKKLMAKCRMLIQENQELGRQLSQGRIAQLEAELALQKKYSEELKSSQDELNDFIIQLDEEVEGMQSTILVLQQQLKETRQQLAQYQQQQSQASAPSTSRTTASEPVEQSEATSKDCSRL


target: T1, Flag-tagged WTAP^1–273 (human); assay: co-IP; Flag-tagged WTAP 1-273 and His-tagged VIRMA 381-1486 co-expressed in HEK 293F cells; whole-cell extracts purified via anti-Flag beads, western blot against the tags

| binding | Binder |
| --- | --- |
| binds | His-tagged VIRMA^381–1486 N452A (domain or fragment, UniProt Q69YN4 381-1486) ASVKLTELLDLYREDRGAKWVTALEEIPSLIIKGLSYLQLKNTKQDSLGQLVDWTMQALNLQVALRQPIALAVRQLKAGTKLVSSLAECGAQGVTGLLQAGVISGLFELLFADHVSSSLKLNAFKALDSVISMTEGMEAFLRGRQNEKSGYQKLLELILLDQTVRVVTAGSAILQKCHFYEVLSEIKRLGDHLAEKTSSLPNHSEPDHDTDAGLERTNPEYENEVEASMDMDLLESSNISEGEIERLINLLEEVFHLMETAPHTMIQQPVKSFPTMARITGPPERDDPYPVLFRYLHSHHFLELVTLLLSIPVTSAHPGVLQATKDVLKFLAQSQKGLLFFMSEYEATNLLIRALCHFYDQDEEEGLQSDGVIDDAFALWLQDSTQTLQCITELFSHFQRCTASEETDHSDLLGTLHNLYLITFNPVGRSAVGHVFSLEKNLQSLITLMEYYSKEALGDSKSKKSVAYNYACILILVVVQSSSDVQMLEQHAASLLKLCKADENNAKLQELGKWLEPLKNLRFEINCIPNLIEYVKQNIDNLMTPEGVGLTTALRVLCNVACPPPPVEGQQKDLKWNLAVIQLFSAEGMDTFIRVLQKLNSILTQPWRLHVNMGTTLHRVTTISMARCTLTLLKTMLTELLRGGSFEFKDMRVPSALVTLHMLLCSIPLSGRLDSDEQKIQNDIIDILLTFTQGVNEKLTISEETLANNTWSLMLKEVLSSILKVPEGFFSGLILLSELLPLPLPMQTTQVIEPHDISVALNTRKLWSMHLHVQAKLLQEIVRSFSGTTCQPIQHMLRRICVQLCDLASPTALLIMRTVLDLIVEDLQSTSEDKEKQYTSQTTRLLALLDALASHKACKLAILHLINGTIKGDERYAEIFQDLLALVRSPGDSVIRQQCVEYVTSILQSLCDQDIALILPSSSEGSISELEQLSNSLPNKELMTSICDCLLATLANSESSYNCLLTCVRTMMFLAEHDYGLFHLKSSLRKNSSALHSLLKRVVSTFSKDTGELASSFLEFMRQILNSDTIGCCGDDNGLMEVEGAHTSRTMSINAAELKQLLQSKEESPENLFLELEKLVLEHSKDDDNLDSLLDSVVGLKQMLES |
| binds | His-tagged VIRMA^381–1486 S1025A (domain or fragment, UniProt Q69YN4 381-1486) ASVKLTELLDLYREDRGAKWVTALEEIPSLIIKGLSYLQLKNTKQDSLGQLVDWTMQALNLQVALRQPIALNVRQLKAGTKLVSSLAECGAQGVTGLLQAGVISGLFELLFADHVSSSLKLNAFKALDSVISMTEGMEAFLRGRQNEKSGYQKLLELILLDQTVRVVTAGSAILQKCHFYEVLSEIKRLGDHLAEKTSSLPNHSEPDHDTDAGLERTNPEYENEVEASMDMDLLESSNISEGEIERLINLLEEVFHLMETAPHTMIQQPVKSFPTMARITGPPERDDPYPVLFRYLHSHHFLELVTLLLSIPVTSAHPGVLQATKDVLKFLAQSQKGLLFFMSEYEATNLLIRALCHFYDQDEEEGLQSDGVIDDAFALWLQDSTQTLQCITELFSHFQRCTASEETDHSDLLGTLHNLYLITFNPVGRSAVGHVFSLEKNLQSLITLMEYYSKEALGDSKSKKSVAYNYACILILVVVQSSSDVQMLEQHAASLLKLCKADENNAKLQELGKWLEPLKNLRFEINCIPNLIEYVKQNIDNLMTPEGVGLTTALRVLCNVACPPPPVEGQQKDLKWNLAVIQLFSAEGMDTFIRVLQKLNSILTQPWRLHVNMGTTLHRVTTISMARCTLTLLKTMLTELLRGGAFEFKDMRVPSALVTLHMLLCSIPLSGRLDSDEQKIQNDIIDILLTFTQGVNEKLTISEETLANNTWSLMLKEVLSSILKVPEGFFSGLILLSELLPLPLPMQTTQVIEPHDISVALNTRKLWSMHLHVQAKLLQEIVRSFSGTTCQPIQHMLRRICVQLCDLASPTALLIMRTVLDLIVEDLQSTSEDKEKQYTSQTTRLLALLDALASHKACKLAILHLINGTIKGDERYAEIFQDLLALVRSPGDSVIRQQCVEYVTSILQSLCDQDIALILPSSSEGSISELEQLSNSLPNKELMTSICDCLLATLANSESSYNCLLTCVRTMMFLAEHDYGLFHLKSSLRKNSSALHSLLKRVVSTFSKDTGELASSFLEFMRQILNSDTIGCCGDDNGLMEVEGAHTSRTMSINAAELKQLLQSKEESPENLFLELEKLVLEHSKDDDNLDSLLDSVVGLKQMLES |
| binds | His-tagged VIRMA^381–1486 T660A (domain or fragment, UniProt Q69YN4 381-1486) ASVKLTELLDLYREDRGAKWVTALEEIPSLIIKGLSYLQLKNTKQDSLGQLVDWTMQALNLQVALRQPIALNVRQLKAGTKLVSSLAECGAQGVTGLLQAGVISGLFELLFADHVSSSLKLNAFKALDSVISMTEGMEAFLRGRQNEKSGYQKLLELILLDQTVRVVTAGSAILQKCHFYEVLSEIKRLGDHLAEKTSSLPNHSEPDHDTDAGLERTNPEYENEVEASMDMDLLESSNISEGEIERLINLLEEVFHLMETAPHTMIQQPVKSFPTMARIAGPPERDDPYPVLFRYLHSHHFLELVTLLLSIPVTSAHPGVLQATKDVLKFLAQSQKGLLFFMSEYEATNLLIRALCHFYDQDEEEGLQSDGVIDDAFALWLQDSTQTLQCITELFSHFQRCTASEETDHSDLLGTLHNLYLITFNPVGRSAVGHVFSLEKNLQSLITLMEYYSKEALGDSKSKKSVAYNYACILILVVVQSSSDVQMLEQHAASLLKLCKADENNAKLQELGKWLEPLKNLRFEINCIPNLIEYVKQNIDNLMTPEGVGLTTALRVLCNVACPPPPVEGQQKDLKWNLAVIQLFSAEGMDTFIRVLQKLNSILTQPWRLHVNMGTTLHRVTTISMARCTLTLLKTMLTELLRGGSFEFKDMRVPSALVTLHMLLCSIPLSGRLDSDEQKIQNDIIDILLTFTQGVNEKLTISEETLANNTWSLMLKEVLSSILKVPEGFFSGLILLSELLPLPLPMQTTQVIEPHDISVALNTRKLWSMHLHVQAKLLQEIVRSFSGTTCQPIQHMLRRICVQLCDLASPTALLIMRTVLDLIVEDLQSTSEDKEKQYTSQTTRLLALLDALASHKACKLAILHLINGTIKGDERYAEIFQDLLALVRSPGDSVIRQQCVEYVTSILQSLCDQDIALILPSSSEGSISELEQLSNSLPNKELMTSICDCLLATLANSESSYNCLLTCVRTMMFLAEHDYGLFHLKSSLRKNSSALHSLLKRVVSTFSKDTGELASSFLEFMRQILNSDTIGCCGDDNGLMEVEGAHTSRTMSINAAELKQLLQSKEESPENLFLELEKLVLEHSKDDDNLDSLLDSVVGLKQMLES |
| binds | His-tagged VIRMA^381–1486 N957A (domain or fragment, UniProt Q69YN4 381-1486) ASVKLTELLDLYREDRGAKWVTALEEIPSLIIKGLSYLQLKNTKQDSLGQLVDWTMQALNLQVALRQPIALNVRQLKAGTKLVSSLAECGAQGVTGLLQAGVISGLFELLFADHVSSSLKLNAFKALDSVISMTEGMEAFLRGRQNEKSGYQKLLELILLDQTVRVVTAGSAILQKCHFYEVLSEIKRLGDHLAEKTSSLPNHSEPDHDTDAGLERTNPEYENEVEASMDMDLLESSNISEGEIERLINLLEEVFHLMETAPHTMIQQPVKSFPTMARITGPPERDDPYPVLFRYLHSHHFLELVTLLLSIPVTSAHPGVLQATKDVLKFLAQSQKGLLFFMSEYEATNLLIRALCHFYDQDEEEGLQSDGVIDDAFALWLQDSTQTLQCITELFSHFQRCTASEETDHSDLLGTLHNLYLITFNPVGRSAVGHVFSLEKNLQSLITLMEYYSKEALGDSKSKKSVAYNYACILILVVVQSSSDVQMLEQHAASLLKLCKADENNAKLQELGKWLEPLKNLRFEINCIPNLIEYVKQNIDNLMTPEGVGLTTALRVLCNVACPPPPVEGQQKDLKWALAVIQLFSAEGMDTFIRVLQKLNSILTQPWRLHVNMGTTLHRVTTISMARCTLTLLKTMLTELLRGGSFEFKDMRVPSALVTLHMLLCSIPLSGRLDSDEQKIQNDIIDILLTFTQGVNEKLTISEETLANNTWSLMLKEVLSSILKVPEGFFSGLILLSELLPLPLPMQTTQVIEPHDISVALNTRKLWSMHLHVQAKLLQEIVRSFSGTTCQPIQHMLRRICVQLCDLASPTALLIMRTVLDLIVEDLQSTSEDKEKQYTSQTTRLLALLDALASHKACKLAILHLINGTIKGDERYAEIFQDLLALVRSPGDSVIRQQCVEYVTSILQSLCDQDIALILPSSSEGSISELEQLSNSLPNKELMTSICDCLLATLANSESSYNCLLTCVRTMMFLAEHDYGLFHLKSSLRKNSSALHSLLKRVVSTFSKDTGELASSFLEFMRQILNSDTIGCCGDDNGLMEVEGAHTSRTMSINAAELKQLLQSKEESPENLFLELEKLVLEHSKDDDNLDSLLDSVVGLKQMLES |

From publication PMC9715571 (Cell Research, 2022)
